Among the data in paper doi:10.1101/2023.08.08.549832 are binding values, retold here.

In assay [1] the target is T1, PTCH2-HA (not stated (printed entry Q9Y6C5 is human PTCH2)) (UniProt Q9Y6C5).
T1 sequence: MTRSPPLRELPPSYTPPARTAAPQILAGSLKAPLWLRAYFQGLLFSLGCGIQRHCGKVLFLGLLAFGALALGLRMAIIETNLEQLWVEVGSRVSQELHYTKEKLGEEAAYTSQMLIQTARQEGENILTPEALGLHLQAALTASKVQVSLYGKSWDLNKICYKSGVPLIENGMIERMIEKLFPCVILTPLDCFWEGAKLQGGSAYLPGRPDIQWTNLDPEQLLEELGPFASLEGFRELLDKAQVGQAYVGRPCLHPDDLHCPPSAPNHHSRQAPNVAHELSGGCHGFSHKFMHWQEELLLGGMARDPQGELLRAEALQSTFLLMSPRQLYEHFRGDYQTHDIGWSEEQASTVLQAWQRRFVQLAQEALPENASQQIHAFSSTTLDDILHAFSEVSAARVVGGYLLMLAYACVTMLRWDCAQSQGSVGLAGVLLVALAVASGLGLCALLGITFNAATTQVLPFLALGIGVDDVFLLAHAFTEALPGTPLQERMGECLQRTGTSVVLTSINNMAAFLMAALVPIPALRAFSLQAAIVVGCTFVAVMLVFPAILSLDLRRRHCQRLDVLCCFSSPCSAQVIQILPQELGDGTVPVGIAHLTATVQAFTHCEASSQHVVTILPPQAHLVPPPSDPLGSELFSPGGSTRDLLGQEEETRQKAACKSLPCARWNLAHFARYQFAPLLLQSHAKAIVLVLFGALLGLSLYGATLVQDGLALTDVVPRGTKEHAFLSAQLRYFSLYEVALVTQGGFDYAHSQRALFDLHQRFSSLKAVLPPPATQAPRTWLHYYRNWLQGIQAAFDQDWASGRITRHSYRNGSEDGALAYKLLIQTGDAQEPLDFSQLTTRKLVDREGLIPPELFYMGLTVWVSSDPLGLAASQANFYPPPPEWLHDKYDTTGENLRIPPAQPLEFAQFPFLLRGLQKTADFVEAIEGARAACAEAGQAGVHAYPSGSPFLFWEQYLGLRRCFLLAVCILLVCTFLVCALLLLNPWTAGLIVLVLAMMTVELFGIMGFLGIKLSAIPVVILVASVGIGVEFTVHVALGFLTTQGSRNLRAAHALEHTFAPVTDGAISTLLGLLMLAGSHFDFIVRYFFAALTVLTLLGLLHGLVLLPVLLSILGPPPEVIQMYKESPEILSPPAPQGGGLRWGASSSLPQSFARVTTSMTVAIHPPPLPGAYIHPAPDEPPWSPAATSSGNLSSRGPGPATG
Description: co-IP.

Assay [2] addresses T2, GFP-tagged PTCH2 (LLW) (not stated (printed entry Q9Y6C5 is human PTCH2)) (UniProt Q9Y6C5).
T2 sequence: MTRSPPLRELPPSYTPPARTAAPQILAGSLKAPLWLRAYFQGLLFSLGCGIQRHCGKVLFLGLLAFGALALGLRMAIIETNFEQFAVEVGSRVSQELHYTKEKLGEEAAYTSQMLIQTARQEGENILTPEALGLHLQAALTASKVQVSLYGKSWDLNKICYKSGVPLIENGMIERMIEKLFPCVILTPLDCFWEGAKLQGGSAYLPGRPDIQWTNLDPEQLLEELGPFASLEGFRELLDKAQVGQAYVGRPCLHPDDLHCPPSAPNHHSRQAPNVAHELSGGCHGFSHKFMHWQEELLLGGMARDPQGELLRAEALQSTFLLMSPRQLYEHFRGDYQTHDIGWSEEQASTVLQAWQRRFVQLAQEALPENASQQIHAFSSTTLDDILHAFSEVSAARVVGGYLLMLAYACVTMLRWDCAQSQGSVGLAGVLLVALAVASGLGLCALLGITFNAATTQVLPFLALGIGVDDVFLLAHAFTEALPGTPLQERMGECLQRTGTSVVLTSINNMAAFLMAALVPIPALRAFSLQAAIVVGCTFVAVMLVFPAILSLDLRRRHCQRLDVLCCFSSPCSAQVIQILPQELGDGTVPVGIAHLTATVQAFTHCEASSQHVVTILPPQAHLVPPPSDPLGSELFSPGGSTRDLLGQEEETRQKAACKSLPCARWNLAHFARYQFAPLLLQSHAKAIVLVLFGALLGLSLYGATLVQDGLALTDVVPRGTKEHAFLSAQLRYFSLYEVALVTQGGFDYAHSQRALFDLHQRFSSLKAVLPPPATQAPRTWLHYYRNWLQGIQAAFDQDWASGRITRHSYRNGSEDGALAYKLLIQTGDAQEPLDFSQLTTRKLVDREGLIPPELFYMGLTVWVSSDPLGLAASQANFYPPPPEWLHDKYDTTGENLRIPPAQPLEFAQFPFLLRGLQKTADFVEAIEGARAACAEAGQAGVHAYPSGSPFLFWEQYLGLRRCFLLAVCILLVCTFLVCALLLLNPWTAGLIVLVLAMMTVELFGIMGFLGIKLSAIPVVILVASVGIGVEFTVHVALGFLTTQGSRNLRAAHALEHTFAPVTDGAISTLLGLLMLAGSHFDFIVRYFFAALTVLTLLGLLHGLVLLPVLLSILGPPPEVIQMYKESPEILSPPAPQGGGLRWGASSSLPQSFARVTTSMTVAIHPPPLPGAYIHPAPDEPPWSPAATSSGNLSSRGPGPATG
The assay can be described thus: FRET or BRET. (In BRET a luciferase serves as donor, and the signal depends on an acceptor being close.)

In assay [3] the target is T3, PTCH2-eGFP (not stated (printed entry Q9Y6C5 is human PTCH2)) (UniProt Q9Y6C5).
T3 sequence: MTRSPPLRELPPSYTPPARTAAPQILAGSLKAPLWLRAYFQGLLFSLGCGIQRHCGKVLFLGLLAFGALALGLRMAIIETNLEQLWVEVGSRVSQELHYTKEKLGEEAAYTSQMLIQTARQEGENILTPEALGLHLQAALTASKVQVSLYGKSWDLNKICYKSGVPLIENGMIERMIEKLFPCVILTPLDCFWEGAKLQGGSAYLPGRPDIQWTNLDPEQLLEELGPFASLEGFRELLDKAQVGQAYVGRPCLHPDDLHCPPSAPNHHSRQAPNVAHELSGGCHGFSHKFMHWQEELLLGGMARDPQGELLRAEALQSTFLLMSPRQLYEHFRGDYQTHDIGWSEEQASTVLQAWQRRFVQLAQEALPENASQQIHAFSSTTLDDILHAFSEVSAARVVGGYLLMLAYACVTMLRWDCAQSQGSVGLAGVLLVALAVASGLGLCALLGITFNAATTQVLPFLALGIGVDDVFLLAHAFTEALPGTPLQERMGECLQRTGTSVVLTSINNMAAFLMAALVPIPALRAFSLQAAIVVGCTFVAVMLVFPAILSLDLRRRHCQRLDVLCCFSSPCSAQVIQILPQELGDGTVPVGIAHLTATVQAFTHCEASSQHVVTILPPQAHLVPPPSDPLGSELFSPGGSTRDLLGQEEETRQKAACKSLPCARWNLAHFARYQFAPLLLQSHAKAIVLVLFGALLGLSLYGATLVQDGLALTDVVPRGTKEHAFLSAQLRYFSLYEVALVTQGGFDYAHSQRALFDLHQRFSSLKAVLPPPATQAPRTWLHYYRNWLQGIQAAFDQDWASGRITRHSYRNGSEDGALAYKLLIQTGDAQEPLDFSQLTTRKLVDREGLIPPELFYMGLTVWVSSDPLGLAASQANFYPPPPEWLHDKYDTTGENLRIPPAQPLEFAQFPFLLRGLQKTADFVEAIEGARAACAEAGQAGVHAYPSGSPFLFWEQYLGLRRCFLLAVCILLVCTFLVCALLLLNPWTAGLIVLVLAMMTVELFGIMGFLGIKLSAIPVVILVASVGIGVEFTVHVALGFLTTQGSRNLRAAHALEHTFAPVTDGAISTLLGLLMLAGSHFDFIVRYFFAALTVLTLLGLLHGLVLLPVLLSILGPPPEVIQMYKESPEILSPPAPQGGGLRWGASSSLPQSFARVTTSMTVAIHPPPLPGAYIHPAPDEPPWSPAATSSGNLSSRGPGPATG
The assay can be described thus: FRET or BRET.

Results are given in words; binding and its absence hold for the method and conditions named. In cells and extracts the contact can be indirect. Some binding calls cover weakened binding; strength is not graded here. Where a sequence is shown, tags or fusion partners need not be part of it.

B1: PTCH2-FLAG (receptor, UniProt Q9Y6C5 1-1203)
chain: MTRSPPLRELPPSYTPPARTAAPQILAGSLKAPLWLRAYFQGLLFSLGCGIQRHCGKVLFLGLLAFGALALGLRMAIIETNLEQLWVEVGSRVSQELHYTKEKLGEEAAYTSQMLIQTARQEGENILTPEALGLHLQAALTASKVQVSLYGKSWDLNKICYKSGVPLIENGMIERMIEKLFPCVILTPLDCFWEGAKLQGGSAYLPGRPDIQWTNLDPEQLLEELGPFASLEGFRELLDKAQVGQAYVGRPCLHPDDLHCPPSAPNHHSRQAPNVAHELSGGCHGFSHKFMHWQEELLLGGMARDPQGELLRAEALQSTFLLMSPRQLYEHFRGDYQTHDIGWSEEQASTVLQAWQRRFVQLAQEALPENASQQIHAFSSTTLDDILHAFSEVSAARVVGGYLLMLAYACVTMLRWDCAQSQGSVGLAGVLLVALAVASGLGLCALLGITFNAATTQVLPFLALGIGVDDVFLLAHAFTEALPGTPLQERMGECLQRTGTSVVLTSINNMAAFLMAALVPIPALRAFSLQAAIVVGCTFVAVMLVFPAILSLDLRRRHCQRLDVLCCFSSPCSAQVIQILPQELGDGTVPVGIAHLTATVQAFTHCEASSQHVVTILPPQAHLVPPPSDPLGSELFSPGGSTRDLLGQEEETRQKAACKSLPCARWNLAHFARYQFAPLLLQSHAKAIVLVLFGALLGLSLYGATLVQDGLALTDVVPRGTKEHAFLSAQLRYFSLYEVALVTQGGFDYAHSQRALFDLHQRFSSLKAVLPPPATQAPRTWLHYYRNWLQGIQAAFDQDWASGRITRHSYRNGSEDGALAYKLLIQTGDAQEPLDFSQLTTRKLVDREGLIPPELFYMGLTVWVSSDPLGLAASQANFYPPPPEWLHDKYDTTGENLRIPPAQPLEFAQFPFLLRGLQKTADFVEAIEGARAACAEAGQAGVHAYPSGSPFLFWEQYLGLRRCFLLAVCILLVCTFLVCALLLLNPWTAGLIVLVLAMMTVELFGIMGFLGIKLSAIPVVILVASVGIGVEFTVHVALGFLTTQGSRNLRAAHALEHTFAPVTDGAISTLLGLLMLAGSHFDFIVRYFFAALTVLTLLGLLHGLVLLPVLLSILGPPPEVIQMYKESPEILSPPAPQGGGLRWGASSSLPQSFARVTTSMTVAIHPPPLPGAYIHPAPDEPPWSPAATSSGNLSSRGPGPATG
With B1, the binding entry in assay [1] is reported as “binds”.

B2: PTCH2-LLW-mCherry (receptor, UniProt Q9Y6C5 1-1203)
chain: MTRSPPLRELPPSYTPPARTAAPQILAGSLKAPLWLRAYFQGLLFSLGCGIQRHCGKVLFLGLLAFGALALGLRMAIIETNFEQFAVEVGSRVSQELHYTKEKLGEEAAYTSQMLIQTARQEGENILTPEALGLHLQAALTASKVQVSLYGKSWDLNKICYKSGVPLIENGMIERMIEKLFPCVILTPLDCFWEGAKLQGGSAYLPGRPDIQWTNLDPEQLLEELGPFASLEGFRELLDKAQVGQAYVGRPCLHPDDLHCPPSAPNHHSRQAPNVAHELSGGCHGFSHKFMHWQEELLLGGMARDPQGELLRAEALQSTFLLMSPRQLYEHFRGDYQTHDIGWSEEQASTVLQAWQRRFVQLAQEALPENASQQIHAFSSTTLDDILHAFSEVSAARVVGGYLLMLAYACVTMLRWDCAQSQGSVGLAGVLLVALAVASGLGLCALLGITFNAATTQVLPFLALGIGVDDVFLLAHAFTEALPGTPLQERMGECLQRTGTSVVLTSINNMAAFLMAALVPIPALRAFSLQAAIVVGCTFVAVMLVFPAILSLDLRRRHCQRLDVLCCFSSPCSAQVIQILPQELGDGTVPVGIAHLTATVQAFTHCEASSQHVVTILPPQAHLVPPPSDPLGSELFSPGGSTRDLLGQEEETRQKAACKSLPCARWNLAHFARYQFAPLLLQSHAKAIVLVLFGALLGLSLYGATLVQDGLALTDVVPRGTKEHAFLSAQLRYFSLYEVALVTQGGFDYAHSQRALFDLHQRFSSLKAVLPPPATQAPRTWLHYYRNWLQGIQAAFDQDWASGRITRHSYRNGSEDGALAYKLLIQTGDAQEPLDFSQLTTRKLVDREGLIPPELFYMGLTVWVSSDPLGLAASQANFYPPPPEWLHDKYDTTGENLRIPPAQPLEFAQFPFLLRGLQKTADFVEAIEGARAACAEAGQAGVHAYPSGSPFLFWEQYLGLRRCFLLAVCILLVCTFLVCALLLLNPWTAGLIVLVLAMMTVELFGIMGFLGIKLSAIPVVILVASVGIGVEFTVHVALGFLTTQGSRNLRAAHALEHTFAPVTDGAISTLLGLLMLAGSHFDFIVRYFFAALTVLTLLGLLHGLVLLPVLLSILGPPPEVIQMYKESPEILSPPAPQGGGLRWGASSSLPQSFARVTTSMTVAIHPPPLPGAYIHPAPDEPPWSPAATSSGNLSSRGPGPATG
B2: the binding result in assay [2] and in assay [3] was “binds” each time.
